Reference: patent publication US20110046137A1, “Pyrazole Derivatives as P2X7 Modulators” (Glaxo Group Limited, priority 2007, published 2011)
Some entries share one result that the patent states for a list of compounds.

Biological target: T1, human recombinant P2X7 receptors (Homo sapiens, UniProt Q99572)
T1 construct: expressed in transfected cells; host or cells: HEK293
T1 sequence (Q99572 1-595): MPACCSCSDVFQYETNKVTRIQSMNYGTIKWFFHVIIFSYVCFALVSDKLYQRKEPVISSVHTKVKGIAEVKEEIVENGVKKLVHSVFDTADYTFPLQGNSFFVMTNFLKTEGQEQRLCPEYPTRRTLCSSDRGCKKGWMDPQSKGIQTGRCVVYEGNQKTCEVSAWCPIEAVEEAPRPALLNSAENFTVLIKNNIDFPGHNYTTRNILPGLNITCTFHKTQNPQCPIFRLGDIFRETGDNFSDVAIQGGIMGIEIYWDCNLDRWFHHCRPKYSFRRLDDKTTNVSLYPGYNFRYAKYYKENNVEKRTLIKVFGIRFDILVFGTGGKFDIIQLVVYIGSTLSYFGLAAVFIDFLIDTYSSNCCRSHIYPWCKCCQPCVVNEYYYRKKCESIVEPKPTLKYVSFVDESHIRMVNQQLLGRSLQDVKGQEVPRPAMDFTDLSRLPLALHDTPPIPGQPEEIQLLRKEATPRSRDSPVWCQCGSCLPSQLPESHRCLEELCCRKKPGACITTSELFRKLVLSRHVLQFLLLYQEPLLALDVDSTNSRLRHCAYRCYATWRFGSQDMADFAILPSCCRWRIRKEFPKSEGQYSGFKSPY
Experiment: Fluorescent Imaging Plate Reader (FLIPR) Ca Assay
Type: cell-based
Conditions: HEK293 cells expressing human recombinant P2X7; blocking BzATP responses; tested in one and/or the other assay

p1050 values in the FLIPR Ca Assay (human P2X7 receptor antagonist activity), > 4.7:
Cc1nn(-c2ccccc2)c(C)c1CC(=O)NCc1cccc(Br)c1 [Example 14, N-[(3-bromophenyl)methyl]-2-(3,5-dimethyl-1-phenyl-1H-pyrazol-4-yl)acetamide]
COc1ccccc1Cn1nc(C)c(CC(=O)NCc2ccc(F)cc2Cl)c1C [Example 93, N-[(2-chloro-4-fluorophenyl)methyl]-2-(3,5-dimethyl-1-{[2-(methyloxy)phenyl]methyl}-1H-pyrazol-4-yl)acetamide]
Cc1nn(-c2ccc(C(=O)N3CCN(C)CC3)cc2)c(C)c1CC(=O)NCc1ccc(F)cc1Cl [Example 155, N-[(2-chloro-4-fluorophenyl)methyl]-2-(3,5-dimethyl-1-{4-[(4-methyl-1-piperazinyl)carbonyl]phenyl}-1H-pyrazol-4-yl)acetamide]
Cc1cncc(-n2nc(C)c(CC(=O)NCc3ccc(F)cc3Cl)c2C)c1 [Example 151, N-[(2-chloro-4-fluorophenyl)methyl]-2-[3,5-dimethyl-1-(5-methyl-3-pyridinyl)-1H-pyrazol-4-yl]acetamide]
Cc1ccc(Cn2nc(C)c(CC(=O)NCc3ccc(F)cc3Cl)c2C)cc1 [Example 103, N-[(2-chloro-4-fluorophenyl)methyl]-2-{3,5-dimethyl-1-[(4-methylphenyl)methyl]-1H-pyrazol-4-yl}acetamide]
Cc1nn(CCNC2CCOCC2)c(C)c1CC(=O)NCc1ccc(F)cc1Cl [Example 136, N-[(2-chloro-4-fluorophenyl)methyl]-2-{3,5-dimethyl-1-[2-(tetrahydro-2H-pyran-4-ylamino)ethyl]-1H-pyrazol-4-yl}acetamide]
COc1cccc(Cn2nc(C)c(CC(=O)NCc3ccc(F)cc3Cl)c2C)c1 [Example 92, N-[(2-chloro-4-fluorophenyl)methyl]-2-(3,5-dimethyl-1-{[3-(methyloxy)phenyl]methyl}-1H-pyrazol-4-yl)acetamide]
Cc1nn(-c2ccccc2)c(C)c1CC(=O)NCc1cc(Cl)ccc1F [Example 47, N-[(5-chloro-2-fluorophenyl)methyl]-2-(3,5-dimethyl-1-phenyl-1H-pyrazol-4-yl)acetamide]
Cc1nn(-c2ccccc2)c(C)c1CC(=O)NCc1ccccc1N [Example 29, N-[(2-aminophenyl)methyl]-2-(3,5-dimethyl-1-phenyl-1H-pyrazol-4-yl)acetamide]
Cc1nn(CCN)c(C)c1CC(=O)NCc1ccc(F)cc1Cl [Example 143, 2-[1-(2-aminoethyl)-3,5-dimethyl-1H-pyrazol-4-yl]-N-[(2-chloro-4-fluorophenyl)methyl]acetamide]
Cc1nn(-c2ccc(N3CCCC3=O)cc2)c(C)c1CC(=O)NCc1ccc(F)cc1Cl [Example 112, N-[(2-chloro-4-fluorophenyl)methyl]-2-{3,5-dimethyl-1-[4-(2-oxo-1-pyrrolidinyl)phenyl]-1H-pyrazol-4-yl}acetamide]
Cc1nn(CC(=O)NCCN(C)C)c(C)c1CC(=O)NCc1ccc(F)cc1Cl [Example 131, 2-[4-(2-{[(2-chloro-4-fluorophenyl)methyl]amino}-2-oxoethyl)-3,5-dimethyl-1H-pyrazol-1-yl]-N-[2-(dimethylamino)ethyl]acetamide]
Cc1nn(C2CCCCC2)c(C)c1CC(=O)NCc1ccc(F)cc1Cl [Example 83, N-[(2-chloro-4-fluorophenyl)methyl]-2-(1-cyclohexyl-3,5-dimethyl-1H-pyrazol-4-yl)acetamide]
Cc1nn(C(C)Cc2ccccc2)c(C)c1CC(=O)NCc1ccc(F)cc1Cl (stereo not drawn) [Example 110, N-[(2-chloro-4-fluorophenyl)methyl]-2-[3,5-dimethyl-1-(1-methyl-2-phenylethyl)-1H-pyrazol-4-yl]acetamide]
Cc1cc(OCCn2nc(C)c(CC(=O)NCc3ccc(F)cc3Cl)c2C)ccc1Cl [Example 111, N-[(2-chloro-4-fluorophenyl)methyl]-2-(1-{2-[(4-chloro-3-methylphenyl)oxy]ethyl}-3,5-dimethyl-1H-pyrazol-4-yl)acetamide]
Cc1nn(CCN2CCCCC2)c(C)c1CC(=O)NCc1ccc(F)cc1Cl [Example 137, N-[(2-chloro-4-fluorophenyl)methyl]-2-{3,5-dimethyl-1-[2-(1-piperidinyl)ethyl]-1H-pyrazol-4-yl}acetamide]
Cc1nn(Cc2ccncc2)c(C)c1CC(=O)NCc1ccc(F)cc1Cl [Example 77, N-[(2-chloro-4-fluorophenyl)methyl]-2-[3,5-dimethyl-1-(4-pyridinylmethyl)-1H-pyrazol-4-yl]acetamide]
COc1cncc(-n2nc(C)c(CC(=O)NCc3ccc(F)cc3Cl)c2C)c1 [Example 171, N-[(2-chloro-4-fluorophenyl)methyl]-2-{3,5-dimethyl-1-[5-(methyloxy)-3-pyridinyl]-1H-pyrazol-4-yl}acetamide]
Cc1nn(C2CN3CCC2C3)c(C)c1CC(=O)NCc1ccc(F)cc1Cl (stereo not drawn) [Example 97, 2-[1-(1-azabicyclo[2.2.1]hept-3-yl)-3,5-dimethyl-1H-pyrazol-4-yl]-N-[(2-chloro-4-fluorophenyl)methyl]acetamide]
Cc1nn(-c2ccccc2)c(C)c1CC(=O)NCc1ccc(F)c(F)c1 [Example 12, N-[(3,4-difluorophenyl)methyl]-2-(3,5-dimethyl-1-phenyl-1H-pyrazol-4-yl)acetamide]
Cc1nn(CC(F)(F)F)c(C)c1CC(=O)NCc1ccc(F)cc1Cl [Example 99, N-[(2-chloro-4-fluorophenyl)methyl]-2-[3,5-dimethyl-1-(2,2,2-trifluoroethyl)-1H-pyrazol-4-yl]acetamide]
Cc1nn(-c2ccccc2F)c(C)c1CC(=O)NCc1ccc(F)cc1Cl [Example 59, N-[(2-chloro-4-fluorophenyl)methyl]-2-[1-(2-fluorophenyl)-3,5-dimethyl-1H-pyrazol-4-yl]acetamide]
Cc1nn(Cc2ccccc2N(C)C)c(C)c1CC(=O)NCc1ccc(F)cc1Cl [Example 95, N-[(2-chloro-4-fluorophenyl)methyl]-2-(1-{[2-(dimethylamino)phenyl]methyl}-3,5-dimethyl-1H-pyrazol-4-yl)acetamide]
Cc1nn(-c2ccccc2)c(-c2ccccc2)c1CC(=O)NCc1ccc(F)cc1Cl [Example 123, N-[(2-chloro-4-fluorophenyl)methyl]-2-(3-methyl-1,5-diphenyl-1H-pyrazol-4-yl)acetamide]
Cc1nn(-c2ccc(Cl)cn2)c(C)c1CC(=O)NCc1ccc(F)cc1Cl [Example 69, N-[(2-chloro-4-fluorophenyl)methyl]-2-[1-(5-chloro-2-pyridinyl)-3,5-dimethyl-1H-pyrazol-4-yl]acetamide]
O=C(Cc1cn(CCNC2CCOCC2)nc1C(F)(F)F)NCc1ccc(F)cc1Cl [Example 176, N-[(2-chloro-4-fluorophenyl)methyl]-2-[1-[2-(tetrahydro-2H-pyran-4-ylamino)ethyl]-3-(trifluoromethyl)-1H-pyrazol-4-yl]acetamide]
Cc1nn(-c2ccccc2)c(C)c1CC(=O)NCc1ccccc1Br [Example 13, N-[(2-bromophenyl)methyl]-2-(3,5-dimethyl-1-phenyl-1H-pyrazol-4-yl)acetamide]
Cc1nn(-c2ccccc2)c(C)c1CC(=O)NCc1ccc(-c2ccccc2)cc1 [Example 27, N-(4-biphenylylmethyl)-2-(3,5-dimethyl-1-phenyl-1H-pyrazol-4-yl)acetamide]
Cc1nn(CCN2CCOCC2)c(C)c1CC(=O)NCc1cccc(Cl)c1C [Example 164, N-[(3-chloro-2-methylphenyl)methyl]-2-{3,5-dimethyl-1-[2-(4-morpholinyl)ethyl]-1H-pyrazol-4-yl}acetamide]
Cc1nn(-c2ncc(Cl)cc2Cl)c(C)c1CC(=O)NCc1ccc(F)cc1Cl [Example 65, N-[(2-chloro-4-fluorophenyl)methyl]-2-[1-(3,5-dichloro-2-pyridinyl)-3,5-dimethyl-1H-pyrazol-4-yl]acetamide]
